From article PMC11749863
These are yes or no findings as the source states them, for the method shown. Some results given as binding are weak or reduced against the parent protein; the word gives no strength.

Amino acid sequences for entries named in this document (tags omitted). Residues count along the entry.
UniProt P11413: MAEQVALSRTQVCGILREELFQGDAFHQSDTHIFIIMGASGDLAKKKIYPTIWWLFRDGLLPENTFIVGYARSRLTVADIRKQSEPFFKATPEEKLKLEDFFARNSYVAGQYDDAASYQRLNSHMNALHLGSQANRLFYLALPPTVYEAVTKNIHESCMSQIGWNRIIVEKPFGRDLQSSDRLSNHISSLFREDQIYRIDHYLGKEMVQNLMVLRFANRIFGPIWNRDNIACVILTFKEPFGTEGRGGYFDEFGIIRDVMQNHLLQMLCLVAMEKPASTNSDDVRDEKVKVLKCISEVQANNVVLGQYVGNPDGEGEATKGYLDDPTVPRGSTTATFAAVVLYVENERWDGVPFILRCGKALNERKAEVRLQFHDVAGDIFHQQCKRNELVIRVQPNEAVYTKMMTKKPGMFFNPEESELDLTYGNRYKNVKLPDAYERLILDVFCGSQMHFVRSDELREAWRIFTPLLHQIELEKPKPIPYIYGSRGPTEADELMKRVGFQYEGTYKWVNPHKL
UniProt Q9BXM7, residues 78-581: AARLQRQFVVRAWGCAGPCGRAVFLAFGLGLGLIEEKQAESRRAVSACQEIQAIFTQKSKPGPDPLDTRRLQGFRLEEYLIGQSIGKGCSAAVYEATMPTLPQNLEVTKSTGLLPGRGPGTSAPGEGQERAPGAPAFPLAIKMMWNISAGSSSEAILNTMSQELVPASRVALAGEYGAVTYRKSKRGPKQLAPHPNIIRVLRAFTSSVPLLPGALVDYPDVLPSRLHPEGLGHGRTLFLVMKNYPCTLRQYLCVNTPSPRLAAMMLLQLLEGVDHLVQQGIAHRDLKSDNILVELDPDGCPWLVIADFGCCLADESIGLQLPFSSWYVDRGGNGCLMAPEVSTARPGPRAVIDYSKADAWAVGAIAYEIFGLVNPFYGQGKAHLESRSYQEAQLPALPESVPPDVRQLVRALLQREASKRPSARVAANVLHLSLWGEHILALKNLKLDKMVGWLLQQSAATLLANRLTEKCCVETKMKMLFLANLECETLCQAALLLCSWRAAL

Target: FLAG-G6PD (UniProt P11413)
Test: pull-down; FLAG-G6PD isolated from HeLa mCherry-Parkin cells and held on FLAG M2 beads, incubated with 100 ng recombinant human PINK1 in 1 mL lysis buffer (25 mmol/L Tris-HCl pH 7.4, 150 mmol/L NaCl, 1% NP-40, 1 mmol/L EDTA, 5% glycerol) for 2 h at room temperature; western blot; both purified

## recombinant human PINK1 protein (from UniProt Q9BXM7 78-581) (enzyme)
  binding: binds
